Results on 1 substance are retold here after publication PMC3080859.

This experiment deals with T1, RCN1-YFP fusion protein (A. thaliana) (UniProt Q38845).
T1 sequence: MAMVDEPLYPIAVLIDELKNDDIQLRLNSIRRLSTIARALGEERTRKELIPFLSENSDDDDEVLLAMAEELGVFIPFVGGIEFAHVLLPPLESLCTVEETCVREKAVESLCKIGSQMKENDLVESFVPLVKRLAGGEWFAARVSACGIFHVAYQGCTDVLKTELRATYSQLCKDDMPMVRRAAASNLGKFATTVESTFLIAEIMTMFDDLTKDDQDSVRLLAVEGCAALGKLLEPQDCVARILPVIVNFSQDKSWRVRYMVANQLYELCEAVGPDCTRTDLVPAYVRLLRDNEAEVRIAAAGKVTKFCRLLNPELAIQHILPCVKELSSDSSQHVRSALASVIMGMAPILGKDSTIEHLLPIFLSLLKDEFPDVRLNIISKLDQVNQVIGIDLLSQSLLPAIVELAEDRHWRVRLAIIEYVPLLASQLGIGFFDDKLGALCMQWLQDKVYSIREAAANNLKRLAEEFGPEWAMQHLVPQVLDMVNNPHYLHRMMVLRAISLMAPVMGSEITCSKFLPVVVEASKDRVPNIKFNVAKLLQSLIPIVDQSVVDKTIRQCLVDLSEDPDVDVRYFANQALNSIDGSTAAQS
As to the kind of experiment: co-IP; anti-GFP antibody + Protein A agarose (or Protein A agarose alone) on extracts of dark-grown RCN1-YFP seedlings; co-IP buffer, 1 hour at 4°C, washed twice; immunoblot with anti-RCN1 and anti-C subunit antisera.

These are yes or no findings as the source states them, for the method shown. In cells and extracts the contact can be indirect. Binding calls can cover weak binding; strength is not graded here. Sequences can lack the tags named with a protein.

Turning to “PP2A C subunit (A. thaliana (endogenous in seedlings)) (enzyme)”, the binding entry is listed as “binds”.
